From patent publication US7713932B2, “Calcitonin drug-oligomer conjugates, and uses thereof” (Biocon Limited, priority 2001, dated 2010)
Several values for one entry are separate records, joined by “and”; a condition that tells them apart may be missing. Identical values can stand only once. Part of at least one peptide drawing is inferred or uncertain, most often the ends.

Tests used:
Chymotrypsin = assay: Enzymatic stability: 0.5 U/mL chymotrypsin digest; type: in vitro ADME; settings: Non-Formulated, 60 min, replicate columns
Experimental: Compounds, supplied as lyophilized powders, are resuspended in 10 mM phosphate buffer pH 7.4 and then submitted for concentration determination by HPLC. The phosphate buffer is used to create a solution with a pH that is optimum for activity of each particular gut enzyme. Aliquots of the compound thus prepared are transferred to 1.7 mL microcentrifuge tubes and shaken in a 37° C. water bath for 15 minutes to allow compounds to equilibrate to temperature. After 15 minutes, 2 μL of the appropriate concentrated gut enzyme is added to each tube to achieve the final concentration desired. Chymotrypsin and trypsin are resuspended in 1 mM HCl. Also, as a control, compounds are treated with 2 μL of 1 mM HCl. Immediately following additions, 100 μL of sample is removed from the control tube and quenched with either 25 μL of chymotrypsin/trypsin quenching solution (1:11% TFA:Isopropanol). This sample will serve as T=0 min. A sampling procedure is repeated at various time intervals depending on the gut enzyme used. Chymotrypsin has 15, 30 and 60 minute samples. Trypsin has 30, 60, 120 and 180 minute samples. Once all points have been acquired, a final sample is removed from the control tube to make sure that observed degradation is not temperature or buffer related. […] RP-HPLC (acetonitrile gradient) is used to determine AUC for each sample and % degradation is calculated based from the T=0 min control. […]

Total serum calcium = assay: Serum calcium lowering after single oral dose in mice; type: in vivo, Male CF-1 mice; settings: Monodispersed mixture

## COCCOCCOCCOCCOCCOCCOCCOCCCCCCCC(=O)NCCCC[C@H](NC(=O)CNC(=O)[C@H](CC(C)C)NC(=O)[C@@H](NC(=O)[C@@H]1CSSC[C@H](N)C(=O)N[C@@H](CO)C(=O)N[C@@H](CC(N)=O)C(=O)N[C@@H](CC(C)C)C(=O)N[C@@H](CO)C(=O)N[C@@H]([C@@H](C)O)C(=O)N1)C(C)C)C(=O)N[C@@H](CC(C)C)C(=O)N[C@@H](CO)C(=O)N[C@@H](CCC(N)=O)C(=O)N[C@@H](CCC(=O)O)C(=O)N[C@@H](CC(C)C)C(=O)N[C@@H](Cc1c[nH]cn1)C(=O)N[C@@H](CCCCNC(=O)CCCCCCCOCCOCCOCCOCCOCCOCCOCCOC)C(=O)N[C@@H](CC(C)C)C(=O)N[C@@H](CCC(N)=O)C(=O)N[C@H](C(=O)N[C@@H](Cc1ccc(O)cc1)C(=O)N1CCC[C@H]1C(=O)N[C@@H](CCCNC(=N)N)C(=O)N[C@H](C(=O)N[C@@H](CC(N)=O)C(=O)N[C@H](C(=O)NCC(=O)N[C@@H](CO)C(=O)NCC(=O)N[C@H](C(=O)N1CCC[C@H]1C(N)=O)[C@@H](C)O)[C@@H](C)O)[C@@H](C)O)[C@@H](C)O
Chymotrypsin
  % Remaining Following 0.5 U/mL Chymotrypsin Digest: 6% and 15% (2×) and 20%
Total serum calcium
  % Baseline Calcium Drop at 2.0μug/kg dose: 21.0%
